Positions count from the first letter of the chain named. No constants are given. Whether binding was seen depends on the method and setting. For part of these data: Binding calls can cover weak binding; strength is not graded here. For part of these data: Tags and fused reporters may be left off the sequences shown.
Tests used:
[1] = target: GST-Rar1 with a mutation of Glu170 (Arabidopsis thaliana) (UniProt Q9SE33); assay: pull-down; GST-Rar1 constructs as bait, one partner alone (Hsp90 or Sgt1); recombinant proteins; conditions in the Supplemental Information; both purified
[2] = target: T1, GST-Rar1 W217T (Arabidopsis thaliana) (UniProt Q9SE33); assay: as above
T1 sequence: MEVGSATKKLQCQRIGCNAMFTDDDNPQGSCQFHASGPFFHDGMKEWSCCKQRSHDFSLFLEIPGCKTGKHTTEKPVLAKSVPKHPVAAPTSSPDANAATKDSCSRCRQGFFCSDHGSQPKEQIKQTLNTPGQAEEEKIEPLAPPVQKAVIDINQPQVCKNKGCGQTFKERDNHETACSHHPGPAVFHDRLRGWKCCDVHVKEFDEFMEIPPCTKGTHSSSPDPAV

[3] = target: T2, GST-Rar1 K45E (Arabidopsis thaliana) (UniProt Q9SE33); assay: pull-down; GST-Rar1 constructs as bait, Hsp90 and Sgt1 both present; both purified
T2 sequence: T1 sequence with K45E, T217W

| binding [1] | binding [2] | binding [3] | Substance |
| --- | --- | --- | --- |
| binds |  |  | Hsp90 (from UniProt Q7XJ80 1-700) |
|  | no binding | binds | Sgt1 (Arabidopsis) |

From paper PMC2935968
